PMC3554717

Sequences of proteins named here, by UniProt entry; tags and fusion partners are left off. A change or cut given only in a name is not applied to a line headed by its entry.
UniProt Q9Y2R2: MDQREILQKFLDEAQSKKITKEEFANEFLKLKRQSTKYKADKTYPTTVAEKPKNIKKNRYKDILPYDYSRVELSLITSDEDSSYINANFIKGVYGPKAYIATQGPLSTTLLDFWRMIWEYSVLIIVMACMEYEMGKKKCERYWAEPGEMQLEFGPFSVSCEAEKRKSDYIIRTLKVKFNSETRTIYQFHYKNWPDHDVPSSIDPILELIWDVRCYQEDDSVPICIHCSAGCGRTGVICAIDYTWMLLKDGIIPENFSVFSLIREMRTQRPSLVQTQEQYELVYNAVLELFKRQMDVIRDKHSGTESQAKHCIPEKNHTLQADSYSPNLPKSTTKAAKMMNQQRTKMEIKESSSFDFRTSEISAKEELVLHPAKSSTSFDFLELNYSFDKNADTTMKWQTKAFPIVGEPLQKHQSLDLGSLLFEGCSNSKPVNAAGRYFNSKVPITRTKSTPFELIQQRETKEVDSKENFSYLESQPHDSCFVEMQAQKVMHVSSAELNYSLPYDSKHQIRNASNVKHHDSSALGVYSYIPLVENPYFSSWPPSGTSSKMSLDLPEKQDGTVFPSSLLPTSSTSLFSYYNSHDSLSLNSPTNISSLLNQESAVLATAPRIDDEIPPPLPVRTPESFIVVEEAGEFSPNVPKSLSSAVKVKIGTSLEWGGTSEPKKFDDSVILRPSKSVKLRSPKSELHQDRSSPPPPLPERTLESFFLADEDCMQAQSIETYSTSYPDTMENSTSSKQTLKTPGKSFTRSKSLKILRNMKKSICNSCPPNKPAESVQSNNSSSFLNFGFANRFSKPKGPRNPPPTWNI
UniProt P41240: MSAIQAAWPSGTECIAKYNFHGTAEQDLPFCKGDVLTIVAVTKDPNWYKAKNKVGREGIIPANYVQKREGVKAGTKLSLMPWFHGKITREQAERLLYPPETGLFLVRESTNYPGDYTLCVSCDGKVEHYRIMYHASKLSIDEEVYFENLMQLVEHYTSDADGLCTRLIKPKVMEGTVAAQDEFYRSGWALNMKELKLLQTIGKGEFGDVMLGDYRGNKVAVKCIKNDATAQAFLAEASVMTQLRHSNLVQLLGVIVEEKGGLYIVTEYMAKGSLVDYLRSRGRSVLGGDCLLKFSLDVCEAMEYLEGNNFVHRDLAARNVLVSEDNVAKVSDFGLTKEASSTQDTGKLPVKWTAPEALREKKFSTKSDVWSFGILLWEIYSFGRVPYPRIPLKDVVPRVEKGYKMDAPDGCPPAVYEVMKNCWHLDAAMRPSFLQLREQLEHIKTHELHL

Assays:
Assay in all cases: co-IP; HEK293 cells transiently transfected with myc-LYP and HA-CSK, untreated or treated with pervanadate (PV) for 5 min; lysis in 20 mM Tris/HCl pH 7.4, 150 mM NaCl, 5 mM EDTA, 1% NP-40; IP of LYP, IB for HA-CSK
myc-LYP Y536F (human) = myc-LYP Y536F (human) (UniProt Q9Y2R2)
[1] = molecular target: myc-LYP point mutant of Pro695 (P2 motif) (human) (UniProt Q9Y2R2)
[2] = molecular target: myc-LYP point mutant of Arg700 (P2 motif) (human) (UniProt Q9Y2R2)
[3] = molecular target: LYP-ΔCTH, deletion mutant of LYP tagged with the myc epitope that lacks the CTH PRM (human) (UniProt Q9Y2R2)
[4] = molecular target: myc-LYP point mutant of Pro615 (P1 motif) (human) (UniProt Q9Y2R2)
myc-LYP Y526F (human) = myc-LYP Y526F (human) (UniProt Q9Y2R2)
[5] = molecular target: myc-LYP P615A/P618A/P695 (human) (UniProt Q9Y2R2)

- binding (myc-LYP Y536F (human)): binds
- binding [1]: binds
- binding [2]: binds
- binding [3]: binds
- binding [4]: binds
- binding (myc-LYP Y526F (human)): binds
- binding [5]: no binding
Substance: HA-CSK (from UniProt P41240 1-450) (enzyme)

Results are given in words; binding and its absence hold for the method and conditions named. In cells and extracts the contact can be indirect. For some of these results: A result given as binding can be weak or reduced; the word gives no strength.
